Reference: publication PMC7486400, “Allosteric coupling between α-rings of the 20S proteasome” (Nature Communications, 2020)
Results are given in words; binding and its absence hold for the method and conditions named. Some entries that bind do so weakly or less than the wild type.

Amino acid sequences for entries named in this document (tags omitted). A change or cut given only in a name is not applied to a line headed by its entry.
UniProt P28061: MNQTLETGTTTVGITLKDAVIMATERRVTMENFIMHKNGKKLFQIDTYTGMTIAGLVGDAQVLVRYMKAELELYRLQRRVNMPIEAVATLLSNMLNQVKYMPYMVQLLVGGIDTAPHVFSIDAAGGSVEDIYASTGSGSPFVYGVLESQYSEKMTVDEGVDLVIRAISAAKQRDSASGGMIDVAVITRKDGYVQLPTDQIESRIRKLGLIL

Key:
[1] = biological target: Thermoplasma acidophilium 20S proteasome α-subunit, wild type, full-length (Thermoplasma acidophilium) (UniProt P25156); test: cryo-EM structure; single-particle cryo-EM of asymmetric CP with one activator bound, with or without substrate (LFP, GFP-ssrA), C7 symmetry applied, about 3 Å; PAN complexes with nucleotide; both purified
[2] = biological target: in vitro assembled symmetric 20S core particle used with PAN (α-rings with R28L) (Thermoplasma acidophilium) (UniProt P25156+P28061); test: negative stain EM; in vitro assembled CP incubated with excess activator (16 nM CP with 112 nM PA26PANc; PAN in excess, 4:1 PAN:CP with nucleotide); Supplementary Fig. 3; both purified
[3] = biological target: T1, in vitro assembled asymmetric 20S core particle used with PAN (one α-ring R28L, one α-ring K66A) (Thermoplasma acidophilium) (UniProt P25156+P28061); test: as above
[4] = biological target: Thermoplasma acidophilium 20S proteasome α-subunit R28L (Thermoplasma acidophilium) (UniProt P25156); test: cryo-EM structure; single-particle cryo-EM of asymmetric CP with one activator bound, with or without substrate (LFP, GFP-ssrA), C7 symmetry applied, about 3 Å; PAN complexes with nucleotide; both purified
[5] = biological target: T1, in vitro assembled asymmetric 20S core particle used with PAN (one α-ring R28L, one α-ring K66A) (Thermoplasma acidophilium); test: as above

| binding [2] | binding [3] | binding [4] | binding [5] | Binder | binding [1] |
| --- | --- | --- | --- | --- | --- |
| – | – | – | – | Thermoplasma acidophilium 20S proteasome α-subunit, wild type, full-length (natural protein, UniProt P25156 1-233, looked up, 20S proteasome α-subunit of Thermoplasma acidophilum, full-length; For the asymmetric CP the wild-type ring was co-expressed from α-His and α-MBP (both C-terminal, TEV site before the tag); All tags were removed after final purification, so the subunit is untagged in the EM samples; All these forms are kept as one molecule here; also called αWT; αwt) MQQGQMAYDRAITVFSPDGRLFQVEYAREAVKKGSTALGMKFANGVLLISDKKVRSRLIEQNSIEKIQLIDDYVAAVTSGLVADARVLVDFARISAQQEKVTYGSLVNIENLVKRVADQMQQYTQYGGVRPYGVSLIFAGIDQIGPRLFDCDPAGTINEYKATAIGSGKDAVVSFLEREYKENLPEKEAVTLGIKALKSSLEEGEELKAPEIASITVGNKYRIYDQEEVKKFL | binds |
| binds | binds | binds | binds | PAN (Proteasomal Activator Nucleotidase) ATPase from Methanococcus jannaschii, wild type (enzyme, UniProt Q58576 1-430) MVFEEFISTELKKEKKAFTEEFKEEKEINDNSNLKNDLLKEELQEKARIAELESRILKLELEKKELERENLQLMKENEILRRELDRMRVPPLIVGTVVDKVGERKVVVKSSTGPSFLVNVSHFVNPDDLAPGKRVCLNQQTLTVVDVLPENKDYRAKAMEVDERPNVRYEDIGGLEKQMQEIREVVELPLKHPELFEKVGIEPPKGILLYGPPGTGKTLLAKAVATETNATFIRVVGSELVKKFIGEGASLVKDIFKLAKEKAPSIIFIDEIDAIAAKRTDALTGGDREVQRTLMQLLAEMDGFDARGDVKIIGATNRPDILDPAILRPGRFDRIIEVPAPDEKGRLEILKIHTRKMNLAEDVNLEEIAKMTEGCVGAELKAICTEAGMNAIRELRDYVTMDDFRKAVEKIMEKKKVKVKEPAHLDVLYR | – |
